For one substance, binding results are on record in article PMC6118821.

Protein sequences, listed by entry. Tags and fused reporters are not part of them. Lines headed by an entry give the natural chain unless they say otherwise; changes in a name come on top. Chains listed by the source or under a name are the forms on record and can include a tag or linker.
ScChd1(1-1305Δ57–88) (P32657, form named): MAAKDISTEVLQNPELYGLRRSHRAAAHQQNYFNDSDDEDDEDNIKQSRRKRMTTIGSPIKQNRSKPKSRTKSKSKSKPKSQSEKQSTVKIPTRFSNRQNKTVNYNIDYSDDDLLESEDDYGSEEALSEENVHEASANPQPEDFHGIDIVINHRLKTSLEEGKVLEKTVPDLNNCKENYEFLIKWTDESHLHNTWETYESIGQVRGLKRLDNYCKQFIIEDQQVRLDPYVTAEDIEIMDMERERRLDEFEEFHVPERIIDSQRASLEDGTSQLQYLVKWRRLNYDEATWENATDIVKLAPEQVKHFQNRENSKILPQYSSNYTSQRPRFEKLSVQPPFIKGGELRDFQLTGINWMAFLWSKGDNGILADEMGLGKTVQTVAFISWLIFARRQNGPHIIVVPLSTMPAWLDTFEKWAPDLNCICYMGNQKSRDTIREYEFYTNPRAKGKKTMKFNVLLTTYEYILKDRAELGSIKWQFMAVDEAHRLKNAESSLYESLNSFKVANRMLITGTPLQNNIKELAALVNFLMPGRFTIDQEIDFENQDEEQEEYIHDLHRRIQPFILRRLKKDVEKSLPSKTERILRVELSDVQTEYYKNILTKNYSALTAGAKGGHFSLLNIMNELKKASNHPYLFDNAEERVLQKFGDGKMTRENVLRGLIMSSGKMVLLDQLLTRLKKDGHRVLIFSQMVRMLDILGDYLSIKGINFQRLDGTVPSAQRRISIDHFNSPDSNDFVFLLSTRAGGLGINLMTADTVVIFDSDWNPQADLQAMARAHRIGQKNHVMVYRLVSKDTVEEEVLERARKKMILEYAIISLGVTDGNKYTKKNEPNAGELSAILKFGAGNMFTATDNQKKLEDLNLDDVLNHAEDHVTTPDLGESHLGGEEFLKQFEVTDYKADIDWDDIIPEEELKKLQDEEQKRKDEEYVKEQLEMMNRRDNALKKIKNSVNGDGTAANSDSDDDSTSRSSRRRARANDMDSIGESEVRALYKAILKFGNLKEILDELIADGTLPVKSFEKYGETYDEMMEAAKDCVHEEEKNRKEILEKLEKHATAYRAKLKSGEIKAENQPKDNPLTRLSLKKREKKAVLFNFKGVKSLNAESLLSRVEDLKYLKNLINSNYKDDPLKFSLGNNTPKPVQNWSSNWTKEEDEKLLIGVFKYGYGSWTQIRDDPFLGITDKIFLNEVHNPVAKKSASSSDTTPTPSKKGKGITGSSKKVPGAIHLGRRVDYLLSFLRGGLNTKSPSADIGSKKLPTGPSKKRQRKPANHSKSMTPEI

For this test, the target named is ScChd1(1-1305Δ57–88) (S. cerevisiae) (UniProt P32657). The test is described as follows: cryo-EM structure; 2:1 complex of ScChd1(1-1305Δ57–88) and a nucleosome with symmetrical 14 bp linkers, ADP-BeFx; envelope at 10-11 Å, two Chd1 and a nucleosome rigid-body docked; both purified.

These are yes or no findings as the source states them, for the method shown.

Take “ScChd1(1-1305Δ57–88) (from UniProt P32657 1-1305) (enzyme)”: the binding result is on record as “no binding”.
